The target of this test is T1, ZTF-7::GFP::3xFLAG (C. elegans) (UniProt Q20448).
T1 sequence: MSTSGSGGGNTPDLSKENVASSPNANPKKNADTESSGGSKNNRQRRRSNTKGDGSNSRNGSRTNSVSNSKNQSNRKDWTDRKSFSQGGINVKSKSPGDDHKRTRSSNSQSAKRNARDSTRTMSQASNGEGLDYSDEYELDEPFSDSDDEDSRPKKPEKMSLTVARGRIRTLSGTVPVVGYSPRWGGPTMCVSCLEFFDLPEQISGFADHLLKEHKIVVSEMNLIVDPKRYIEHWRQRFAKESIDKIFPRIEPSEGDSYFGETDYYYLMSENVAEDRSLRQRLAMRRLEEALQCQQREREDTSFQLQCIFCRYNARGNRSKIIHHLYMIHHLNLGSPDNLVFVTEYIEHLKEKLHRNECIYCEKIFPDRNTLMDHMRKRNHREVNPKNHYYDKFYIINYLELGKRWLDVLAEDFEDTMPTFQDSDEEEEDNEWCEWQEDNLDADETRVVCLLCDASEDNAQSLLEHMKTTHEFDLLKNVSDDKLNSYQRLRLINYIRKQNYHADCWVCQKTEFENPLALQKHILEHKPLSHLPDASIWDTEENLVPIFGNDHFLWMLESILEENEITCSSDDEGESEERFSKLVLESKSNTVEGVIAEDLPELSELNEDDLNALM
Nature of the test: co-IP; L3/L4 animals expressing ZTF-7::GFP::3xFLAG and 3xHA::RPS-2; IP with anti-FLAG antibody, RPS-2 detected by anti-HA antibody; with and without cold-warm shock (no significant effect detected).

No constants are given. Whether binding was seen depends on the method and setting. In cells and extracts the contact can be indirect. Some entries that bind do so weakly or less than the wild type. Sequences can lack the tags named with a protein.

B1: 3xHA::RPS-2 (protein, UniProt P51403 1-272)
chain: MADRGGFQSGFGGRGGGRGGARPAGDRPAGRGGRGGRGGRGGRGGRAGRGGEKETEWTPVTKLGRLVKEKKITTLEEIYLNSLPIKEFEIIDALCSNLKDEVLKISPVQKQTTAGQRTRFKAFVAIGDHAGHVGLGVKCSKEVATAIRGAIVAAKLAVVPVRRGYWGNKIGLPHTVPCKVTGKCASVMVRLIPAPRGTGIVSAPVPKKLLHMAGIEDCYTAAKGSTATLGNFAKATYAALQRTYSYLTPDLWKEEALEKSPYQRHHEYLARN
In the case of B1, the binding entry was “binds”.

The values are drawn from PMC9949642.
